Data as given in patent US20040120923A1.

Protein sequences, listed by entry. Tags and fused reporters are not part of them. Lines headed by an entry give the natural chain unless they say otherwise; changes in a name come on top.
UniProt Q9NZH6: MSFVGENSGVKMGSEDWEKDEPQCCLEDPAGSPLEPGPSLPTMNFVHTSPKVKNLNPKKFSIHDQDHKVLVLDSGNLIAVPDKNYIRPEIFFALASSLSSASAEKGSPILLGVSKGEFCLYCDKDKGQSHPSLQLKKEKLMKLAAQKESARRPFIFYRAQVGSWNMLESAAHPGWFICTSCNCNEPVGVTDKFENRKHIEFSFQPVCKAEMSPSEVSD

Tests used:
[1] = biological target: T1, IL-18Rα: D3 (third extracellular domain of IL-18Rα, his6 tagged, from E. coli) (UniProt Q13478); assay: BS3 chemical cross-linking, reducing SDS-PAGE, Western blot with anti-IL-18Rα mAb (legend of FIG. 3A)
T1 sequence (looked up): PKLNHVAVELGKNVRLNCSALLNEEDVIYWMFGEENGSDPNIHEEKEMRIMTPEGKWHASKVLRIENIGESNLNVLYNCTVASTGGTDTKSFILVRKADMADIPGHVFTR

[2] = biological target: T1, IL-18Rα: D3 (third extracellular domain of IL-18Rα, his6 tagged, from E. coli); assay: BS3 chemical cross-linking, SDS-PAGE, Western blot with anti-IL-18Rα mAb

Q: How did the binding [1] turn out when “mature IL-1F7b (N-terminus E21) (from UniProt Q9NZH6) (ligand)” was run?
A: The binding was “binds”.

Q: What about the binding [2] of the same substance?
A: Its binding is “binds”.

These are yes or no findings as the source states them, for the method shown. Binding can be weak; no strength is given. Tags and fused reporters may be left off the sequences shown.
